In PubChem BioAssay AID1439 (NMMLSC, 2008):
Hit rate of the full screen: of about 220,000 compounds, about 770 (0.35%) were called active. The shares of active, inactive and inconclusive entries below differ from those in the screen. No stated cut-off is given here; in the data, active means binding response below about 49% or above about 150%; inconclusive means no clear call, values can overlap the other calls; inactive means in between.

Protein sequences, listed by entry. Tags and fused reporters are not part of them.
UniProt P09471, whole entry, looked up: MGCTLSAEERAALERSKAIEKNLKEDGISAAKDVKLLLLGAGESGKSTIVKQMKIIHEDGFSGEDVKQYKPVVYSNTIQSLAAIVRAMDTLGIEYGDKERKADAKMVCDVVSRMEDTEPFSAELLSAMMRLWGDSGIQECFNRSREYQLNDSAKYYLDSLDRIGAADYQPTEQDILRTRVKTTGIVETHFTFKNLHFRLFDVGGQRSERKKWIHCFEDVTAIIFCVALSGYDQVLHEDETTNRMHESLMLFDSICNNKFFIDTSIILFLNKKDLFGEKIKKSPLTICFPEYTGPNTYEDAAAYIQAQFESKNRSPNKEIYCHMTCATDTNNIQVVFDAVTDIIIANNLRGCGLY

Each compound was assayed against Guanine nucleotide-binding protein G(o) subunit alpha (Homo sapiens) (UniProt P09471) (assay: RGS7-Galphao binding modulators, primary screen, biochemical, multiplexed bead flow cytometry (AID 1439;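 further: fluorescent Galphao held in activated GDP-AlF4 state binding bead-coupled RGS7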)). Conditions: at 10 µM, actives lie on both sides.

Compound	binding response (% of control)
S=C(NCCCN1CCOCC1)NC1CCCC1	inconclusive: 85%
COc1cc(CCCN2C(=S)NC[C@@H]2CC2CCCCC2)cc(OC)c1OC	inconclusive: 101%
Cc1ccc(N=Nc2ccc(O)c3ncccc23)cc1C	inactive: 91.8%
CCCCCCCCNC(CO)(CO)CO	inconclusive: 95.4%
CC1(CCc2ccccc2)NC(=O)N(CC(=O)N2CC(=O)Nc3ccccc32)C1=O (stereo not drawn)	inconclusive: 56.5%
CC(C)(C)c1cc(C(=O)N/N=C/c2ccco2)n[nH]1	inactive: 115%
O=C(NCc1ccccc1C(F)(F)F)C1CC(c2ccccc2C(F)(F)F)=NO1 (stereo not drawn)	inconclusive: 101%
NS(=O)(=O)c1cccc(NC(=O)COC(=O)/C=C/c2ccco2)c1	inconclusive: 95.8%
O=C(Nc1cccnc1)c1cc2cc(Br)ccc2oc1=O	inconclusive: 79.9%
COc1ccccc1C(=O)Nc1nsc(-c2ccccc2)n1	inconclusive: 103%
Cc1cnc(C(=O)OCc2ccc(COC(=O)c3cnc(C)cn3)cc2)cn1	inconclusive: 66.3%
COc1ccc(/C=C/C(=O)N[C@H](C(=O)O)C(C)C)cc1	inconclusive: 109%
Cc1ccc(C)c(-n2cc(CNC(C)Cn3cncn3)c(-c3ccccc3)n2)c1 (stereo not drawn)	inconclusive: 125%
CCCCc1cc2c(cc1NC(=O)CN1CCCCC1)OCCO2	inconclusive: 84.7%
CCCCc1nnc(NC(=O)COc2ccc3c(C)cc(=O)oc3c2)s1	inconclusive: 138%
O=C(NCCCN1CCOCC1)C(=O)N/N=C/c1ccccc1Cl	inconclusive: 31%
CCN1C(=O)C(CC(=O)Nc2ccc(OC)cc2)N(Cc2ccco2)C1=S (stereo not drawn)	inactive: 105%
COc1ccc(C(=O)CN2C(=O)c3ccccc3S2(=O)=O)cc1	inconclusive: 77.6%
CCOC(=O)c1ccc(N2C(=O)CC(N3CCN(C(=O)c4ccccc4)CC3)C2=O)cc1 (stereo not drawn)	inactive: 99.4%
Cc1ccc(S(=O)(=O)N(C)C)cc1-n1c(SCC(=O)Nc2ccc(F)c(F)c2F)nc2ccccc2c1=O	inactive: 99.3%
CC(C)NC(=O)N(O)C1N(C(C)C)C(=O)N(Cc2ccc3c(c2)OCO3)C1(C)C (stereo not drawn)	inconclusive: 3.23%
CSc1ccccc1C(=O)NCc1ccccc1C	inconclusive: 96.6%
Nc1c(C(=O)O)sc2nc(-c3ccccc3)cc(-c3ccc(F)cc3)c12	inconclusive: 135%
O=C(COc1ccc(Cl)cc1Cl)N1CCN(c2ccccn2)CC1	inconclusive: 117%

Compound	binding response (% of control)
COc1cc(/C=N/NC(=O)Cn2cnc3c2c(=O)n(C)c(=O)n3C)ccc1O	inconclusive: 91%
Cc1ccc(NNC(=O)c2snnc2C)cc1Cl	inconclusive: 114%
O=C(CSc1nnc2ccccn12)NNC(=O)c1ccc([N+](=O)[O-])cc1	inconclusive: 92%
CCOC(=O)/C(C#N)=C/c1cccn1-c1ccc(Cl)cc1	inconclusive: 121%
N#Cc1sc(C(N)=O)c(-c2ccccc2)c1-c1ccccc1	inconclusive: 77.9%
CCC(=O)Nc1nc2ccccc2n1Cc1ccccc1Cl	inconclusive: 142%
Nc1ccc(-c2cn3cccnc3n2)cc1	inconclusive: 103%
CC(/C=C/c1ccccc1)=N\NC(=O)c1cc(C)nc2ccccc12	inconclusive: 20.3%
O=C(NNc1nc(-c2ccc(F)cc2)cs1)c1ccccc1	inconclusive: 119%
COC(=O)c1cnn2c1C(=O)N(Cc1cccs1)CC2	inconclusive: 78.3%
CC(NC(=O)C(=S)N1CCN(C)CC1)c1ccccc1 (stereo not drawn)	inconclusive: 133%
Cc1csc2c(=O)n(CCO)c(=O)[nH]c12	inconclusive: 109%
CCOC(=O)/C=C1\SCC(=O)N1CC(=O)NCCOC	inconclusive: 111%
O=c1[nH]nc(SCCS(=O)(=O)c2ccc(F)cc2)n1-c1ccccc1	inconclusive: 88.2%
Cc1c(C=N)c(O)n(C)c(=O)c1C#N	inconclusive: 79%
CCOc1ccc(-n2cnc3sc4c(c3c2=O)CCCC4)cc1	inconclusive: 154%
C/C(=N/NC(N)=S)c1cc2ccc(O)cc2oc1=O	inconclusive: 85.5%
COc1ccc(/C=N/n2c(=O)[nH]c3c([nH]c4ccc(F)cc43)c2=O)cc1CN1CCCCC1	inconclusive: 105%
Cc1cc(N2CCN(C)CC2)n2nc(-c3ccc(Cl)cc3)nc2n1	inconclusive: 128%
CCOC(=O)c1cc(C(C)(C)C)n(CCCN2CCOCC2)c1C	inconclusive: 104%
Cc1ccc(-c2n[nH]c(=S)n2C)cc1Cl	inconclusive: 92.8%
O=C(NCCc1ccccc1)C(=O)NCC1OCCN1S(=O)(=O)c1ccc(Cl)cc1 (stereo not drawn)	inconclusive: 81.6%
CC(=O)c1ccc(-c2cc([C@H]3[C@H]4C=CC[C@@H](C)[C@@H]4C(=O)N3Cc3ccccc3)ccc2F)cc1	inconclusive: 103%
Cc1ccc2c(C)c(C(=O)N3CCC(N4CCC(C(=O)NC5CC5)CC4)CC3)oc2c1	inconclusive: -4.32%

Compound	binding response (% of control)
CSc1nc2cc(C)nn2c(-c2ccc(C(C)(C)C)cc2)c1C#N	inconclusive: 95.8%
Cc1ccc(C(C[N+](=O)[O-])c2c(-c3ccccc3O)[nH][nH]c2=O)cc1 (stereo not drawn)	inactive: 96.6%
CC(Nc1ccc2c(c1)OCCO2)C(=O)N1c2ccccc2CC1C (stereo not drawn)	inactive: 98.3%
O=C(NNc1cccc(Cl)n1)C(F)(F)F	inconclusive: 99.4%
CC(C)Oc1ncnc2c1[nH]c1ccccc12	inconclusive: 81%
CCN(CC)S(=O)(=O)c1ccc(NC(=O)COC(=O)c2c[nH]c(=O)[nH]c2=O)cc1	inconclusive: 122%
CCn1c(=O)c([N+](=O)[O-])c(NCc2ccco2)c2ccccc21	inconclusive: 77.8%
Cn1c(Cn2c3ccccc3c3ccccc32)n[nH]c1=S	inconclusive: 91.7%
CCCCCC1CCC(c2nnc(SCC(C)=O)o2)CC1 (stereo not drawn)	inconclusive: 90.1%
CC(C)C(=O)N1CCC2(CC1)Oc1ccc(F)cc1C(=O)C21CC(c2ccccc2)=NO1 (stereo not drawn)	inconclusive: 99.7%
O=C(CSC1=NCCS1)Nc1ccnc2ccccc12	inactive: 99.4%
CCOc1cccc(C(=O)Nc2cccc(-c3nnc(-c4ccc(C)cc4)o3)c2)c1	inactive: 143%
CCc1ccc2c(c1)cc(CN(C(=S)Nc1cccc(C)c1)C1CC1)c1nnnn12	inactive: 99.4%
Nn1c(SCc2cccc(Br)c2)nnc1-c1ccncc1	inconclusive: 123%
O=C(CN1CCN(C(=O)c2ccco2)CC1)N1CCc2[nH]c3ccccc3c2C1	inconclusive: 32.6%
CC(C)Cc1ccc(C(C)C(=N)N)cc1 (stereo not drawn)	inconclusive: 91.1%
CCOC(=O)c1[nH]cnc1C(=O)Nc1ccc(C)cc1	inconclusive: 190%
Cc1c(C)n(Cc2ccccc2)c2ccc(C(=O)OCCN(C)C)cc12	inactive: 104%
O=C(COc1cc(Cl)c(Cl)cc1Cl)Nc1cccc(O)c1	inconclusive: 116%
CCCS(=O)(=O)N1CCN(C(=O)c2cccnc2)CC1	active: 47.7%
CC(=O)Nc1c(F)cc(Br)cc1F	inconclusive: 207%
Cc1nnc(SCCOc2ccccc2)s1	inconclusive: 85.3%
CCCNC(=O)c1ccc(Cl)cc1Cl	inconclusive: 103%
Cc1cc(C)c(S(=O)(=O)Nc2ccc(N3CCOCC3)cc2)c(C)c1	inconclusive: 97.9%

Filtered by structure: the compounds so far with a COOH group
Compound	binding response (% of control)
COc1ccc(/C=C/C(=O)N[C@H](C(=O)O)C(C)C)cc1	inconclusive: 109%
Nc1c(C(=O)O)sc2nc(-c3ccccc3)cc(-c3ccc(F)cc3)c12	inconclusive: 135%

The listing continues:

Compound	binding response (% of control)
N#C/C(C(=O)c1ccccc1)=C1/CCCN1	inactive: 110%
COc1ccccc1N(C(=O)c1snc(C(N)=O)c1N)C(C(=O)NCCC(C)C)c1ccco1 (stereo not drawn)	inactive: 99.6%
COc1ccc(Cn2c(=O)c3[nH]cnc3n(-c3ccccc3C)c2=O)cc1	inconclusive: 30.8%
COc1ccc(NC(=O)CC(NCCc2ccccc2)C(=O)O)c(OC)c1 (stereo not drawn)	inactive: 99.1%
COc1ccc2c(c1)Cc1sc(NC(=O)c3ccco3)nc1-2	active: 46%
COCc1c(C(=O)N/N=C(/C)c2ccccc2)nnn1-c1nonc1N	inconclusive: 72.1%
CCCC(CCC)C(=O)Nc1ccc2c(c1)N(C(=O)CN1CCN(C)CC1)c1ccccc1CC2	inactive: 119%
CCOc1ccc2nc(COC(=O)c3cccc([N+](=O)[O-])c3)c(C(C)=O)[n+]([O-])c2c1	inconclusive: 86%
Clc1nc(CN2CCCCC2)nc2sc3c(c12)CCCC3	inconclusive: 88.2%
O=C(Cc1cccs1)Nc1ccccc1-c1nc2ccccc2[nH]1	inconclusive: 88.1%
COc1ccc(CCCc2nc3ccccc3[nH]2)cc1	inconclusive: 90.4%
COC(=O)c1cc(OC)c(OC)c(OC)c1N	inactive: 108%
CC(=O)c1cccc(NC(=O)Cn2c(=O)oc3cc(S(=O)(=O)N4CCCC4)ccc32)c1	inconclusive: 33.1%
Cc1ccc(N2C(=O)c3cccc4c(Oc5ccccc5[N+](=O)[O-])ccc(c34)C2=O)c(C)c1	inactive: 122%
COc1ccc(NC(C)(C)c2nnnn2-c2c(C)cccc2C)cc1	inconclusive: 123%
CCOC(=O)c1cccc2c1-c1ccccc1/C2=N/O	inactive: 102%
CC1CCc2sc(C(=O)OCC(=O)NC(N)=O)cc2C1 (stereo not drawn)	inconclusive: 29%
COc1ccc(-n2nnnc2/C(=C/N(C)C)C(=O)c2ccccc2)cc1	inconclusive: 110%
CC(=O)c1ccc(O)c(CC=C(C)C)c1	inconclusive: 160%
CC1CN(c2ccc([N+](=O)[O-])cn2)CC(C)O1 (stereo not drawn)	inconclusive: 56.6%
O=C(Cc1ccc(Cl)c(Cl)c1)Nc1cccc(S(=O)(=O)N2CCOCC2)c1	inactive: 97.4%

Copied from the entries so far (3 entries):
Compound	binding response (% of control)
COCc1c(C(=O)N/N=C(/C)c2ccccc2)nnn1-c1nonc1N	inconclusive: 72.1%
CCCC(CCC)C(=O)Nc1ccc2c(c1)N(C(=O)CN1CCN(C)CC1)c1ccccc1CC2	inactive: 119%
CCOc1ccc2nc(COC(=O)c3cccc([N+](=O)[O-])c3)c(C(C)=O)[n+]([O-])c2c1	inconclusive: 86%
